B1: tRNA (parent)
chain: GUUCCGUUGGCGUAAUGGUAACGCGUCUCCCUCCUAAGGAGAAGACUGCGGGUUCGAGUCCCGUACGGAACG

Variants at the background level are over-represented here.

Variants of B1 are the subject of the data set. The experiment in a line: yeast fitness relative to wild type (ratio to wild type); higher = fitter; tRNA-Arg(CCU), competitive growth, 37 C, YPD. In outline:
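Variants of the tRNA-Arg(CCU) gene were chemically synthesised with a 3% per-site mutation rate across 69 sites and placed at the native genomic locus in Saccharomyces cerevisiae. Six parallel replicates of the pooled strains were competed in YPD at 37°C for 24 hours, and gene amplicons from the start and end populations were read by 100-nucleotide paired-end sequencing. Darwinian fitness relative to wild type was derived from changes in genotype frequencies. Genotypes required ≥ 100 starting reads, and estimates < 0.5 were set to 0.5.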
As for GUUCCGUUGGGGUAGUGGUAACGCGUCUCCCUCAUAAGGAGAAGACUGCGGGUUCGAGUCCCGUACGGAACG [C11G A15G C34A], the yeast fitness is no more than 0.5.
Under GUUCAGUUGGCGUAAUGGUUACGCGUCUCCCUCCUAAGGAGAAGACUGCGGGUUUGAGUCUCGUGCGGUACG [C5A A20U C55U C61U A65G A69U] stands no more than 0.5; under GUUCCGUUGGCGUAAUGGUAUCGCGUCACCCUCGUAAGGAGAAGACUGCGGGUUCGAGUCCCGUACGGAACG [A21U U28A C34G], no more than 0.5.
Consider GUUCCGUUGGGGUCAUGGCAACGCGUCUCGCUCCUAAGGAGAAGGCUGCGGGCUCGAGUCCCGUACGGAACG [C11G A14C U19C C30G A45G U53C], for which the yeast fitness was no more than 0.5.
Under GUUCCGAUGGCGUAAUGGUAACGCGUCUCCCUCCUAAGGUGAAGGUUGCGGGUUCGAGUCCCGUACGGAACG [U7A A40U A45G C46U] stands no more than 0.5; under GUUCCGUUGGCGCAAUGGUAACGCGUCUCCCUCCUAUGGAGAAGACUGCGGGUUCGAGUCCCGUAUGGAACG [U13C A37U C66U], no more than 0.5.
Next, GUUCCGUUGGCGUAAUGCUUACGCGUCUCCCUCCUAAGGAGAAGACUGCGGGCUCGAGUCCCGUACGGUACG [G18C A20U U53C A69U]: no more than 0.5; GUUCCGUUGGCGUAAUGGUAACGCGUGUCCCUCCUAAGGAGAAGACUGCGGGUUCGAGUUCCGUACCGAACG [C27G C60U G67C]: no more than 0.5; GUUCCGUUGGCGUAAUCGUAGCGCGUCUCACUCGUAAGGAGAAGGCUGCGGGUUCGAGUCCCGUACGGAACG [G17C A21G C30A C34G A45G]: no more than 0.5.
Next, GUUCCGUUGCCGUAAUGGUAACGCGUCUCCCUCCUAAGGAGAAGACUGCGGGUUUGAGUCCCGUUCGGAACG [G10C C55U A65U]: no more than 0.5; GUUCCGUUGGCGUAAUGGUAACGUGUCUCCCUGCUAAGGAGAAGACGGCGGGUUCGAGUCCCGUAUGGAACG [C24U C33G U47G C66U]: no more than 0.5; GUUCCGUUGGCGUAAUGGUAACGCGUCUGCCUCCUACGGAGAAGACUGCGGGUUCGAGUCCCGUACAGAACG [C29G A37C G67A]: no more than 0.5.
Turning to GUUCCGUUGGCGUAAUGGUAACGCGUCUUUCUCCUUAGGAGAAGACUGCGGGUUCGAGUCCCGUACGGAACG [C29U C30U A36U], the yeast fitness is no more than 0.5.
As to GUUGCGUUGGCGUAAUGGUACAGCGUGUCCCUCUUAAGGAGAAGACUGCGGGUUCAAGUCCCGUACCGAACG [C4G A21C C22A C27G C34U G56A G67C], the yeast fitness is no more than 0.5.
Next, GUUCCGUUGGCGUAAUGUUAUCGCGUCUCCCUCCUAAGGAGAAGACUGCGGAUUCGAGUCCCGUACGGAACG [G18U A21U G52A]: no more than 0.5; GUACCGUUGGCGUCAUGGUAACGCGUAUCCAUCCUAAGGAGAAGACUGCGGGUUCGAGUCCCGUACGGAACG [U3A A14C C27A C31A]: no more than 0.5; GUUCCGUUGGUGUAAUGGUAACGCGUCUCUCUCCUAAGGAGAAGACUGCGGGUUGGAGUCCCAUACGGAACG [C11U C30U C55G G63A]: no more than 0.5.
With GUUCCGAUGACGUAAUGGUAACGCGUCUCCCUCCUAAGGACUAGAAUGCGGGUUCGAGUCCCGUGCGGAACG [U7A G10A G41C A42U C46A A65G], the yeast fitness was no more than 0.5.
Next, GUUCGGUUGGCGUAAAGGUAACGCGUCUCCCUACCAAGGAGACGACUGCAGGUUCGUGUGCCGUACGGAACG [C5G U16A C33A U35C A43C G50A A57U C60G]: no more than 0.5; GUUCCGUUGGCGUAAUGGUAACGCGUCUCCCUCCUAAGGAGAAAACUGCGGGUUCGAGUUCAGUACGGAACG [G44A C60U C62A]: no more than 0.5.
For GUUCCGUUGGCGUAAUGGUAACGCGUCACCUUCCUAAGGAGAAGACUGCGGGUUCGAGUCCCGUUCGGAACG [U28A C31U A65U], the yeast fitness worked out at 0.546.
Next, GUUCCGCUGGGGUAAUGGUAACGCGUCUCCCGCCUAAGGAGAAGACUGCGGGUUCGAGUCCCGUACGGAACG [U7C C11G U32G]: no more than 0.5; GUUGCGUUGGCGUAAUGGUAACGCGUCUCCCUCCUAAGGAGAAGACUGAGGGUUCGAGUCCCGUACGGCACG [C4G C49A A69C]: no more than 0.5; GUUCCGUUGGCAGAUUGGUAACGAGUCUACCUGCUAAGGAGAAGACUGCGGCUUAGAGUCCCGUACGGAACG [G12A U13G A15U C24A C29A C33G G52C C55A]: no more than 0.5.
Next, GUUCCGUUGGGGUAGUGGUAACGCGACUCCCACCUAAAGUGAAGACUGCGGGUUCGAGUCCCGUACGGAACG [C11G A15G U26A U32A G38A A40U]: no more than 0.5.
Turning to GUUCCGUUGGCGUAAUGGUACCGCGUAUCCCUCCUAAGGAGAAGACUGCGGGUUCGAGUGCCGUACGGAACG [A21C C27A C60G], the yeast fitness was no more than 0.5.
Next, GUGCCGUUGGCGUAAUGGUAACGCGUCUCCCUCCUAAGGAGAAGACCGCGCGUUCGAGUCCCGUACGGAACG [U3G U47C G51C]: no more than 0.5.
Next, GUUACGUUGGCGUUAUGGUAACGCGUCUCGCUCCUAAGGAGAAGACUGCGGGCUCGAGUAACGUAGGGAACG [C4A A14U C30G U53C C60A C61A C66G]: no more than 0.5.
Next, GUUCCGUUGGCGUAAUGGUCACGCGUCUCCCUCCAGAGGAGAACACUGCGGGUUCGCGUCCCGUACGGAACG [A20C U35A A36G G44C A57C]: no more than 0.5.
As to GUUCCGUUGGCGUAAUGGUAACGCGUCUCCCUCCUAAGGACAAGACUGCGGGUUCGAGUCCCGUACGGUUCG [G41C A69U A70U], the yeast fitness came to 0.629.
Next, GUUCCGGUGGCGUAAUGGUAUCGCGUCUACCUCCUAAGGAGAAGACUGCGGGUUAGAGUCCCGUAUGGAACG [U7G A21U C29A C55A C66U]: no more than 0.5.
Regarding GUUCCGUUGGCGUAAUGGUAACCCGUCUCGCUCCUAAGGAGAAGACUGCGGGUUCGAGUCCCGUACGGAACG [G23C C30G], the yeast fitness was 0.511.
Under GUUCCGGUGGGGUAAUGGUAACGCGUCUCCCUCUUAAGGAGAAGACUGGGGGUUCGAGACCCGUACGGAACG [U7G C11G C34U C49G U59A] stands no more than 0.5.
Under GUUCCGUUGGCGUAAUGGUAACGCGUCUCCCUCCUAAGGAGAAGACUGCCGGUUAGAGUCCCGUACGGAACG [G50C C55A] stands 0.619; under GUUCCGUUGGCGUAAGGGUAACGCGUCUCCCUCCUAAGGAGAAGACUGCGGGUUCGAGUUGCGUACAGAACG [U16G C60U C61G G67A], no more than 0.5.
On to GUUCCGUUGGCGUAAUGGUAACGCGUCUCCCUCCUAAGGAGAAGACUGCGGGUUCCAGUCCCGUACGGUCCG [G56C A69U A70C], for which the yeast fitness was no more than 0.5.
In the case of GUUCCGAUGGCGCAAUGGUAACGCGUCUCCCUCCUAAGGAGUAGAAUGCGGGUUCGAGUCCCGUACGGAACG [U7A U13C A42U C46A], the yeast fitness is no more than 0.5.
For GUUCCGUUGGCGUAAUGGUAACGCGUCUCCCUCCUAACGAGAAGACUGCGGGUUCGAGUCCCGUACUGAACG [G38C G67U], the yeast fitness stood at 0.549.

These data come from the RNAGym collection of RNA variant scans (doi:10.1126/science.aae0568).
